{"source": "PubChem BioAssay AID1259424 (University of Nebraska Medical Center, 2018)", "aim": "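Seek colon cancer survival genes behaving like KSR1, using a six-gene signature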 (primary screen)", "cell system": "human HCT116 colon cancer cells", "reagents": "siRNA pool against human genes, 50 nM", "measured": "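Six signature mRNAs by branched-DNA multiplex assay, scaled to two housekeeping genes and non-targeting median, log2; matched to mean KSR1 knockdown profile by Pearson correlation and euclidean distance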", "direction": "mean correlation with KSR1 profile: higher = expression change more like KSR1 knockdown", "note": "The deposit covers about 14,000 reagents; below is a part drawn at random. 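Higher correlation or smaller distance means closer resemblance to KSR1 loss; control wells, including KSR1 knockdowns, recur on many plates.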 Further read-outs or replicates are left out here. Not given: the time to read-out."}
{"gene": "DERL1", "mean correlation with KSR1 profile": -0.446}
{"gene": "PHLDB1", "mean correlation with KSR1 profile": -0.435}
{"gene": "IK", "mean correlation with KSR1 profile": -0.191}
{"gene": "MRC2", "mean correlation with KSR1 profile": 0.123}

2 neighbouring entries from above:
{"gene": "PHLDB1", "mean correlation with KSR1 profile": -0.435}
{"gene": "IK", "mean correlation with KSR1 profile": -0.191}

Additional reagents:
{"gene": "TMEM50A", "mean correlation with KSR1 profile": -0.342}
{"gene": "LPAR1", "mean correlation with KSR1 profile": 0.93}
{"gene": "PPP2R3B", "mean correlation with KSR1 profile": -0.235}
{"gene": "PDE3B", "mean correlation with KSR1 profile": 0.0122}
{"gene": "SKIC8", "mean correlation with KSR1 profile": 0.463}
{"gene": "SET", "mean correlation with KSR1 profile": 0.241}
{"gene": "PLPPR1", "mean correlation with KSR1 profile": -0.123}
{"gene": "APOBEC2", "mean correlation with KSR1 profile": -0.102}
